This is one part of the list. This is a noisy data set.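 Tm was set to 64 °C where no melting was found, and many curves are irregular.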
Compound: CCc1cnccc1C(=O)Nc1cc2c(cc1F)NC(=O)CC2
Test: melting temperature shift (DMSO Tm minus MBE1-treated Tm) in cellular thermal proteome profiling; higher = less thermal stabilization by MBE1 (negative = stabilized by MBE1)
Details: A375

By UniProt entry, the sequences of proteins in these tests, tags left out. Where a name states a change or a piece, a line headed by the entry shows the natural chain unless it says otherwise.
UniProt Q8TCS8: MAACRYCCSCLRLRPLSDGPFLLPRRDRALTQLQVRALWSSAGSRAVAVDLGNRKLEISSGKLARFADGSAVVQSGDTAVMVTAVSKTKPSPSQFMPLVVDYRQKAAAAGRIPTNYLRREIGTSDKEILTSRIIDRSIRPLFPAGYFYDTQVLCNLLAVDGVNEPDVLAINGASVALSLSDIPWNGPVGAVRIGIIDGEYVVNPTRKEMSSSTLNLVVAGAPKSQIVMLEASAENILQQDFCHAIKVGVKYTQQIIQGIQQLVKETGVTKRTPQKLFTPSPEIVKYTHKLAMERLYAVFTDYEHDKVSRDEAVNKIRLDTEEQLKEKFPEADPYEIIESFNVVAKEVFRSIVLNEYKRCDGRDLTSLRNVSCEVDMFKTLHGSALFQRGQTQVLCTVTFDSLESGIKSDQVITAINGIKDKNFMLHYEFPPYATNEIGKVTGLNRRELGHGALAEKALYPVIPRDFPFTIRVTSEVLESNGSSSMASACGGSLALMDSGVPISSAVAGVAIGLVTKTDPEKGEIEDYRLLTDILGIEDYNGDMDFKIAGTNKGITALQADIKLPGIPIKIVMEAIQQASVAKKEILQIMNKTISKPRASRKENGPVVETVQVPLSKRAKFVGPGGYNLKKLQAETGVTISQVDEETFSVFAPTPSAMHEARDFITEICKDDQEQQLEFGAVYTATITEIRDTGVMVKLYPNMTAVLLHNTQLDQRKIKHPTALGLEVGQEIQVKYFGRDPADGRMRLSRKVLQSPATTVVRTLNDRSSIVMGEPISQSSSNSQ
UniProt Q8NHH9: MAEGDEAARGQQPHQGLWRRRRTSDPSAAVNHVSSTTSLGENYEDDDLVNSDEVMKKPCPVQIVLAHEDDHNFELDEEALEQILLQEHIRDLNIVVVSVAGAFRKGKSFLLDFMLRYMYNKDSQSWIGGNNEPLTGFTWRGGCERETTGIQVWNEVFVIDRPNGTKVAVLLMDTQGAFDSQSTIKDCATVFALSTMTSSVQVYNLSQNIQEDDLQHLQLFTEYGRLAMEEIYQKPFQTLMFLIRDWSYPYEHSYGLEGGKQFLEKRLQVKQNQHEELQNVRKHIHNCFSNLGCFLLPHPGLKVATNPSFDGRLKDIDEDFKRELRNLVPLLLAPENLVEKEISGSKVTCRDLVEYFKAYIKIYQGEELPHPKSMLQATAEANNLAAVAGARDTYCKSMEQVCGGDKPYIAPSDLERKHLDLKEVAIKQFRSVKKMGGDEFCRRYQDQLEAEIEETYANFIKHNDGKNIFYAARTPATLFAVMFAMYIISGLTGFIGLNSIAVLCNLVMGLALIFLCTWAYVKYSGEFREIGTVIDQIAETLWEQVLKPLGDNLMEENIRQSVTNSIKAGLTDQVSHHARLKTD
UniProt Q8ND04: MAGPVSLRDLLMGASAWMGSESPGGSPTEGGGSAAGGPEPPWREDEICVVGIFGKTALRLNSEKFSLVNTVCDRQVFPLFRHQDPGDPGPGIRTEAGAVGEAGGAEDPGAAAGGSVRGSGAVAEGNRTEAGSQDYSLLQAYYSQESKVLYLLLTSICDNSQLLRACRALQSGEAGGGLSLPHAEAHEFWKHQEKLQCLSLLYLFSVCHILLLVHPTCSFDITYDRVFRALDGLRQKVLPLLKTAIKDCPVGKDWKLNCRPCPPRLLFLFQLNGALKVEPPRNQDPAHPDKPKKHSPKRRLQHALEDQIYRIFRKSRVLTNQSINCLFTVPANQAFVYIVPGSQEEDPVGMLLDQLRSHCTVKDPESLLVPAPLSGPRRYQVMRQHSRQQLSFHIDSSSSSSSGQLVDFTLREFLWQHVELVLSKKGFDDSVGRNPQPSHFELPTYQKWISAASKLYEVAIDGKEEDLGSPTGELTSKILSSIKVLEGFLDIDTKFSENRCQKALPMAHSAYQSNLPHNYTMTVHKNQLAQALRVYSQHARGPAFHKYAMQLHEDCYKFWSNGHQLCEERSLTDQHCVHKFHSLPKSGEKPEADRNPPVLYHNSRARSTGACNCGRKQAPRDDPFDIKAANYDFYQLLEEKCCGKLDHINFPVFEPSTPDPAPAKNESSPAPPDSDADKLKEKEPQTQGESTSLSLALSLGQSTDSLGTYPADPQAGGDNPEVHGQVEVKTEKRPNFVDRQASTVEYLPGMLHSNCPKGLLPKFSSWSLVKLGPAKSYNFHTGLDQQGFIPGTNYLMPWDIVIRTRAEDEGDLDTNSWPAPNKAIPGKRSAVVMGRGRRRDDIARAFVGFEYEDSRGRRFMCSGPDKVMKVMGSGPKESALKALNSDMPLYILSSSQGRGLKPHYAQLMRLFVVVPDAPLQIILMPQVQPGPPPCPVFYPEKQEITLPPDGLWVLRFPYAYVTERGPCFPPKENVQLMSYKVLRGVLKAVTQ
UniProt Q8TBM8: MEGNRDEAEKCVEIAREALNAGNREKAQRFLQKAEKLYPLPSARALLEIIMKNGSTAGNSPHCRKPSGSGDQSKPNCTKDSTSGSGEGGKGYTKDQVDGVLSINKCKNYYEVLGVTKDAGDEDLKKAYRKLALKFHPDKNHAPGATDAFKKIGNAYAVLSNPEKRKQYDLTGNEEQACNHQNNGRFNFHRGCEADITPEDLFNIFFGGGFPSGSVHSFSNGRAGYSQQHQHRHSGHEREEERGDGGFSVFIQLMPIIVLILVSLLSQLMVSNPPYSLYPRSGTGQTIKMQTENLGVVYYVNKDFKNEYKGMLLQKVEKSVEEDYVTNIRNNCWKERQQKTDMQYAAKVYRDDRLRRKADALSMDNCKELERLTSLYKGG
UniProt Q8TDW0: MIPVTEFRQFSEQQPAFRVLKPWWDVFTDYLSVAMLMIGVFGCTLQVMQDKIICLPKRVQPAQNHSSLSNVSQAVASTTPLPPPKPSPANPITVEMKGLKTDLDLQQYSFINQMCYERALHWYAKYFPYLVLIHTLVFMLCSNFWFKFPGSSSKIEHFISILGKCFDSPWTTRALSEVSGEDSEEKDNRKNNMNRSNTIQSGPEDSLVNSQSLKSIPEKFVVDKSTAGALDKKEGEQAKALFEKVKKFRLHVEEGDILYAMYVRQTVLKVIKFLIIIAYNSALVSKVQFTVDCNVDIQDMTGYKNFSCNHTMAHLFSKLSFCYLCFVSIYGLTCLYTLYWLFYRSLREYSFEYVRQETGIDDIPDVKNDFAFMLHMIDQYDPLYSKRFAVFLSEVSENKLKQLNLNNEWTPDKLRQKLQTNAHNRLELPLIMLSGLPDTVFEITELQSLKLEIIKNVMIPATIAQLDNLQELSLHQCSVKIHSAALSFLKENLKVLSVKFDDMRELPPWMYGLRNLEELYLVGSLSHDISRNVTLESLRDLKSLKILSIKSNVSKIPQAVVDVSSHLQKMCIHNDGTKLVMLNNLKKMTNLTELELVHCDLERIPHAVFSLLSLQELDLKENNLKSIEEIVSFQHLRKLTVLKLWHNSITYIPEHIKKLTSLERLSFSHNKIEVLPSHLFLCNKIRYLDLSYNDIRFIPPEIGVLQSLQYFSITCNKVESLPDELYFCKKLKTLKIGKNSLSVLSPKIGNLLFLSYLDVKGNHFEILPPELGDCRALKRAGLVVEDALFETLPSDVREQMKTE
UniProt Q8NBK3: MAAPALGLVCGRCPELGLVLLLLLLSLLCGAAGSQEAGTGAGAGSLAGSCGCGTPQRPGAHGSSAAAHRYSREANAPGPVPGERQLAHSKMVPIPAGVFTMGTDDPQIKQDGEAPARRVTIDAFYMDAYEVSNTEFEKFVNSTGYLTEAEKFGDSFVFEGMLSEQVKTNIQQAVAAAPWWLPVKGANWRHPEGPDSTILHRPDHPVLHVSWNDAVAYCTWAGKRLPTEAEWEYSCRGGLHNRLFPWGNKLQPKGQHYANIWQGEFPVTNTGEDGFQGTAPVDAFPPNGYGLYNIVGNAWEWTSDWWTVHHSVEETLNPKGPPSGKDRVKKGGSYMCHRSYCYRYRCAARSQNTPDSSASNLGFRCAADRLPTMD
UniProt Q8NI60: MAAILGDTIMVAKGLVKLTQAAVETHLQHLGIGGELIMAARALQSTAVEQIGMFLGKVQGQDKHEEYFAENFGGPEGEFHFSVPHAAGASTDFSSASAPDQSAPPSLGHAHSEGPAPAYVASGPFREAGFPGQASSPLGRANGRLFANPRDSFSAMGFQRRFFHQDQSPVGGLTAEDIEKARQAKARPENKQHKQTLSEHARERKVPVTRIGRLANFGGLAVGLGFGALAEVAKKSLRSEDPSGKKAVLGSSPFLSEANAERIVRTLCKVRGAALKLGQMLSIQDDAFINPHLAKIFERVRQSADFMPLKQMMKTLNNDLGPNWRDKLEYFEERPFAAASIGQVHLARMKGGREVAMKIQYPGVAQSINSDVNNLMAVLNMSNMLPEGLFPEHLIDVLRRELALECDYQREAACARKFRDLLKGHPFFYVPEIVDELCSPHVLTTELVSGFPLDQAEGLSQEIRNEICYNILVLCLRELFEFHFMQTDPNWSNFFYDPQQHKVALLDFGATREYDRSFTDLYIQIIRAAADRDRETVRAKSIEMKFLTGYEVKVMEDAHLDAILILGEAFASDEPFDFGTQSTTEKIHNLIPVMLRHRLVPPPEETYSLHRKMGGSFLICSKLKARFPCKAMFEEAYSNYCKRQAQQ
UniProt Q8NHQ8: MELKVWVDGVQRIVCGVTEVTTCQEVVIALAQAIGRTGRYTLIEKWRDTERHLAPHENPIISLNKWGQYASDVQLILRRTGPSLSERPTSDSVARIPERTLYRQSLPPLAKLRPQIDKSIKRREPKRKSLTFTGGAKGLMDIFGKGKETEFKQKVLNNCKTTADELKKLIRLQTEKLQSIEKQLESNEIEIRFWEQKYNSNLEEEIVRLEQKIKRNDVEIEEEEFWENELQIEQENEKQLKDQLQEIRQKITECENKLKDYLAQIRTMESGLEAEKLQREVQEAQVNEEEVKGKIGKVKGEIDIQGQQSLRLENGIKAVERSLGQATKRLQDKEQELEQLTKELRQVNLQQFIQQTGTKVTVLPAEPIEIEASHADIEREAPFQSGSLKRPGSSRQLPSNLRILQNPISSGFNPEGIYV
UniProt Q8TCN5: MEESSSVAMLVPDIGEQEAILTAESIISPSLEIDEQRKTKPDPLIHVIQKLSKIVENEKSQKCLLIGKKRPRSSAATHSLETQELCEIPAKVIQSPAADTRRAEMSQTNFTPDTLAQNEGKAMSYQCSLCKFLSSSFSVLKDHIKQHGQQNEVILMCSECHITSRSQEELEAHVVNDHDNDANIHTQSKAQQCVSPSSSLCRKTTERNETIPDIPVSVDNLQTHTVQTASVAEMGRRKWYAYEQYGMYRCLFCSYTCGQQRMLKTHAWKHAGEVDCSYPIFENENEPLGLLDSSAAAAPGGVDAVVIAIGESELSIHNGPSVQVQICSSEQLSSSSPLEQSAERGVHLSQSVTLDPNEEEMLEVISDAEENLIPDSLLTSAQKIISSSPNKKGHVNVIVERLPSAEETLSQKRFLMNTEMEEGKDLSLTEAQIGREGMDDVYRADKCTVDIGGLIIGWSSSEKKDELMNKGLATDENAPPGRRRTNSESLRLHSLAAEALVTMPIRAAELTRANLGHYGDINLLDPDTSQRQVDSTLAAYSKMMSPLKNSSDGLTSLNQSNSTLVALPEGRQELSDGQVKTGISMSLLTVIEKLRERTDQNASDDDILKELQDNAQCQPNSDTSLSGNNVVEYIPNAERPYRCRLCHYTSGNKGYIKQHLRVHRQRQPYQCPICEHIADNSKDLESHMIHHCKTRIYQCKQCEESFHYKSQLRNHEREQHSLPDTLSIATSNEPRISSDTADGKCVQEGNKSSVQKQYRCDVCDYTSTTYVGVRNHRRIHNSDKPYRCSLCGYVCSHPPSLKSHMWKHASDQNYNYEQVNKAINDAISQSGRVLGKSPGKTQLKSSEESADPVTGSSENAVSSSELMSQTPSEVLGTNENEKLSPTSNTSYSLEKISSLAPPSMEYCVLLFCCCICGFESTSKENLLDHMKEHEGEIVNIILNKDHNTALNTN
UniProt Q8TED0: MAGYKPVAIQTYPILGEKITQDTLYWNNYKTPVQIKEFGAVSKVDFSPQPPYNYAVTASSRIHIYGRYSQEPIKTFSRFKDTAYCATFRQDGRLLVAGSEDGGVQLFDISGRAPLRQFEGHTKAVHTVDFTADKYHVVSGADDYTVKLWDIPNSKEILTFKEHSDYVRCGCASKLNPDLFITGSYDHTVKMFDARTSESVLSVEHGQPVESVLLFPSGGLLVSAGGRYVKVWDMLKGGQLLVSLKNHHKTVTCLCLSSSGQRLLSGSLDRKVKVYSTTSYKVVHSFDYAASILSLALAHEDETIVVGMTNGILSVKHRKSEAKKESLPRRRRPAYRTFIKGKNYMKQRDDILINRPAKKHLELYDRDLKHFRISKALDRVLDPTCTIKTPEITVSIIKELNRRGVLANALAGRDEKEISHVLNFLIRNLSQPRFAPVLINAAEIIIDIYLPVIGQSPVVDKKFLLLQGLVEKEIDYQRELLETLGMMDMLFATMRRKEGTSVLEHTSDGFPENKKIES

Question: Which results are given for PNPT1 (UniProt Q8TCS8)?
Answer: melting temperature shift (MBE1 concentration: 100 nM): 0.655 °C; melting temperature shift (MBE1 concentration: 1 uM): -0.0733 °C

Question: How did the melting temperature shift (MBE1 concentration: 100 nM) turn out when UniProt Q8NHS3 was run?
Answer: -0.49 °C

Question: And the melting temperature shift (MBE1 concentration: 1 uM)?
Answer: 2.37 °C

Question: Which melting temperature shift (MBE1 concentration: 100 nM) does the source give for ATL2 (UniProt Q8NHH9) here?
Answer: -0.276 °C

Question: And the melting temperature shift (MBE1 concentration: 1 uM)?
Answer: 0.275 °C

Question: What does the source list for GALNT6 (UniProt Q8NCL4)?
Answer: melting temperature shift (MBE1 concentration: 100 nM): -0.456 °C; melting temperature shift (MBE1 concentration: 1 uM): 0.0366 °C

Question: NFATC2IP (UniProt Q8NCF5) was tested. Which melting temperature shift (MBE1 concentration: 100 nM) did it give?
Answer: -2.09 °C

Question: And the melting temperature shift (MBE1 concentration: 1 uM)?
Answer: -0.809 °C

Question: How did the melting temperature shift (MBE1 concentration: 100 nM) turn out when SMG8 (UniProt Q8ND04) was run?
Answer: -0.334 °C

Question: What about the melting temperature shift (MBE1 concentration: 1 uM) of the same target?
Answer: -0.433 °C

Question: What does the source list for ANKRD52 (UniProt Q8NB46)?
Answer: melting temperature shift (MBE1 concentration: 100 nM): -0.433 °C; melting temperature shift (MBE1 concentration: 1 uM): -0.442 °C

Question: Which results are given for DNAJB14 (UniProt Q8TBM8)?
Answer: melting temperature shift (MBE1 concentration: 100 nM): -0.263 °C; melting temperature shift (MBE1 concentration: 1 uM): -0.372 °C

Question: Which results are given for UniProt Q8TDW0?
Answer: melting temperature shift (MBE1 concentration: 100 nM): -0.355 °C; melting temperature shift (MBE1 concentration: 1 uM): 0.837 °C

Question: With UniProt Q8WTR2 as the target, how does the melting temperature shift (MBE1 concentration: 100 nM) read?
Answer: -0.611 °C

Question: And the melting temperature shift (MBE1 concentration: 1 uM)?
Answer: -1.09 °C

Question: With CACTIN (UniProt Q8WUQ7) as the target, how does the melting temperature shift (MBE1 concentration: 100 nM) read?
Answer: 0.0733 °C

Question: What about the melting temperature shift (MBE1 concentration: 1 uM) of the same target?
Answer: -0.488 °C

Question: How did the melting temperature shift (MBE1 concentration: 100 nM) turn out when RNF169 (UniProt Q8NCN4) was run?
Answer: -1.16 °C

Question: What about the melting temperature shift (MBE1 concentration: 1 uM) of the same target?
Answer: -1.01 °C

Question: What does the source list for SUMF1 (UniProt Q8NBK3)?
Answer: melting temperature shift (MBE1 concentration: 100 nM): -0.416 °C; melting temperature shift (MBE1 concentration: 1 uM): 0.165 °C

Question: For UniProt Q8NI60, which melting temperature shift (MBE1 concentration: 100 nM) is on record?
Answer: -0.181 °C

Question: And the melting temperature shift (MBE1 concentration: 1 uM)?
Answer: -0.0183 °C

Question: Which results are given for NUP133 (UniProt Q8WUM0)?
Answer: melting temperature shift (MBE1 concentration: 100 nM): 1.47 °C; melting temperature shift (MBE1 concentration: 1 uM): 0.635 °C

Question: With RASSF8 (UniProt Q8NHQ8) as the target, how does the melting temperature shift (MBE1 concentration: 100 nM) read?
Answer: -0.762 °C

Question: And the melting temperature shift (MBE1 concentration: 1 uM)?
Answer: 0.141 °C

Question: What does the source list for DIS3L (UniProt Q8TF46)?
Answer: melting temperature shift (MBE1 concentration: 100 nM): -0.814 °C; melting temperature shift (MBE1 concentration: 1 uM): -0.762 °C

Question: How did the melting temperature shift (MBE1 concentration: 100 nM) turn out when NOA1 (UniProt Q8NC60) was run?
Answer: -1.66 °C

Question: And the melting temperature shift (MBE1 concentration: 1 uM)?
Answer: -1.18 °C

Question: UniProt Q8NDZ2 was tested. Which melting temperature shift (MBE1 concentration: 100 nM) did it give?
Answer: -0.788 °C

Question: And the melting temperature shift (MBE1 concentration: 1 uM)?
Answer: -2.08 °C

Question: Which results are given for SUMF2 (UniProt Q8NBJ7)?
Answer: melting temperature shift (MBE1 concentration: 100 nM): -0.879 °C; melting temperature shift (MBE1 concentration: 1 uM): 0.574 °C

Question: What does the source list for UniProt Q8TCN5?
Answer: melting temperature shift (MBE1 concentration: 100 nM): -1.38 °C; melting temperature shift (MBE1 concentration: 1 uM): -0.679 °C

Question: What does the source list for UTP15 (UniProt Q8TED0)?
Answer: melting temperature shift (MBE1 concentration: 100 nM): -0.582 °C; melting temperature shift (MBE1 concentration: 1 uM): -0.32 °C

Question: Which melting temperature shift (MBE1 concentration: 100 nM) does the source give for UniProt Q8NC69 here?
Answer: -0.847 °C

Question: What about the melting temperature shift (MBE1 concentration: 1 uM) of the same target?
Answer: 5.61 °C

Question: CANT1 (UniProt Q8WVQ1) was tested. Which melting temperature shift (MBE1 concentration: 100 nM) did it give?
Answer: -0.698 °C

Question: And the melting temperature shift (MBE1 concentration: 1 uM)?
Answer: 0.651 °C

Question: What does the source list for UniProt Q8N8R5?
Answer: melting temperature shift (MBE1 concentration: 100 nM): -1.32 °C; melting temperature shift (MBE1 concentration: 1 uM): -0.818 °C

Question: Which melting temperature shift (MBE1 concentration: 100 nM) does the source give for UniProt Q8TBF2 here?
Answer: -2.13 °C

Question: And the melting temperature shift (MBE1 concentration: 1 uM)?
Answer: 0.843 °C

Source: the supplement of paper PMC12595434, “Development of retinoid nuclear receptor pathway antagonists through targeting aldehyde dehydrogenase 1A3” (iScience, 2025)
